# In patent US20080248574A1, “ANTAGONISTS OF THE INTERACTION OF MELANOMA INHIBITORY ACTIVITY (MIA) AND P66SHC” (University of Pittsburgh - Of the Commonwealth System of …, priority 2007, published 2008):
# These are yes or no findings as the source states them, for the method shown. For some assays here: In cells and extracts the contact can be indirect. Some entries that bind do so weakly or less than the wild type. For some assays here: Sequences can lack the tags named with a protein.
# T1: SH3-like domain of MIA (spotted on TransSignal SH3 Domain Array III, Panomics) (UniProt Q16674)
# T1 sequence (looked up): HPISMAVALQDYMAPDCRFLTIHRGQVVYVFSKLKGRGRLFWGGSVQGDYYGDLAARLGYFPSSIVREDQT
# T2: Melanoma Inhibitory Activity (MIA) (human) (UniProt Q16674)
# T2 sequence (looked up): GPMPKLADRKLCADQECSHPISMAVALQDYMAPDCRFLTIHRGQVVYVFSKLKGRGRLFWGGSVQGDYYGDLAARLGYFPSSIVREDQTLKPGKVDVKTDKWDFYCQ
# B1: Recombinant (His)6-tagged CH2 domain of p66shc (protein, not shown: small tags and cut ends)
# chain: MNLLPPKPKYNPLRNESLSSMEEGASGSTPPEELPSPPASSLGPILPPLPGDDSPTTLCSFFPRMSNLRLANPAGGRPGSKGEPGRAADDGEGIVGAAMPDSGPLPLLQD
# B2: isolated CH2 domain of p66shc expressed in COS7 cells (protein)
# chain: MNLLPPKPKYNPLRNESLSSMEEGASGSTPPEELPSPPASSLGPILPPLPGDDSPTTLCSFFPRMSNLRLANPAGGRPGSKGEPGRAADDGEGIVGAAMPDSGPLPLLQD
# Columns and labels:
# [1] = target: T1, SH3-like domain of MIA (spotted on TransSignal SH3 Domain Array III, Panomics); experiment: far-Western blotting of an SH3 domain array
# [2] = target: T2, Melanoma Inhibitory Activity (MIA) (human); experiment: co-precipitation from COS7 cells
Binder,binding [1],binding [2]
B1,binds,–
B2,–,binds
